“And” between values parts separate entries of the source, which are not always exact repeats. Equal values may be shown once.

Here are results for one substance from publication PMC10033409, “Autoregulation of GPCR signalling through the third intracellular loop” (Nature, 2023).

For this data set, the system named is β2AR L258Azi (Δ350-413). Briefly: Time-correlated single photon counting, other sensor designs and dye-only controls (mNeonGreen/Cy3, TagRFP/AZDye488, free dyes). As to conditions: Extended Data Figure 4L. The class given is biochemical, human.

As for Oregon Green, the “Fluorescence lifetime, Free Dye, individual replicates 1-3” value was 2.81 and 2.69 and 2.84. The “Fluorescence lifetime, Free Dye, Average” value (average of 3) was found to be 2.78.
